Source: PMC10352775
These are yes or no findings as the source states them, for the method shown. In cells and extracts the contact can be indirect. Some entries that bind do so weakly or less than the wild type.

Sequences of proteins named here, by UniProt entry; tags and fusion partners are left off.
UniProt Q9UBL6: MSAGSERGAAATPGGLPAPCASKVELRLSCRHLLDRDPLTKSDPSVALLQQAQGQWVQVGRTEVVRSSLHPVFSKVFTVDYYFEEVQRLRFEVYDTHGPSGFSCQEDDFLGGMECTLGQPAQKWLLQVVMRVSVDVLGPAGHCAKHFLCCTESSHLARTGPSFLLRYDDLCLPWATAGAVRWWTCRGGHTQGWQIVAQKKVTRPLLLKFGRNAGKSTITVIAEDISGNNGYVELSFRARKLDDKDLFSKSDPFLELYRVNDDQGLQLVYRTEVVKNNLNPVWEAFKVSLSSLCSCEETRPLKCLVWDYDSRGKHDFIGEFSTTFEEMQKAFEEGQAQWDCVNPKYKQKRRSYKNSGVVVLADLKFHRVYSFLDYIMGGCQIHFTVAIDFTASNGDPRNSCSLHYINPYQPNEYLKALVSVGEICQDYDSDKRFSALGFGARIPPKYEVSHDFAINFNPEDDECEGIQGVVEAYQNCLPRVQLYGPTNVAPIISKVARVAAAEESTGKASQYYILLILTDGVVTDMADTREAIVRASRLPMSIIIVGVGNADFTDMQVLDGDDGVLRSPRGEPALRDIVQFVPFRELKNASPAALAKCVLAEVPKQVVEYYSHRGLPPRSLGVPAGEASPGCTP
UniProt P14618: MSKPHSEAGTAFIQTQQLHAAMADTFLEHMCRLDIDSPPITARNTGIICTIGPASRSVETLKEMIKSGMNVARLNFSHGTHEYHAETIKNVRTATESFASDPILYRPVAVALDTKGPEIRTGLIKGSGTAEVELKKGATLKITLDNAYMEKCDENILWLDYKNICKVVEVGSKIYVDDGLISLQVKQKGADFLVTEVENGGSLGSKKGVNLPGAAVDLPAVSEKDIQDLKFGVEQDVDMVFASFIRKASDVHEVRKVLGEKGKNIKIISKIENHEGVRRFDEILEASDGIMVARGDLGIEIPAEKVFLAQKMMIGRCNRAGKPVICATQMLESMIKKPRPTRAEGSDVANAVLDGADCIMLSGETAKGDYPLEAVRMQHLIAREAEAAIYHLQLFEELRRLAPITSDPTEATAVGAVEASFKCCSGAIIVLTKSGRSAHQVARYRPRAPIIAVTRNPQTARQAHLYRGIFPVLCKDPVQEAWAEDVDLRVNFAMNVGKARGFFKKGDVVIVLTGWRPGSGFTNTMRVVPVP

Experiments:
[1] = biological target: Copine 7 (CPNE7), exogenous, in HEK293 cells (UniProt Q9UBL6); assay: co-IP; HEK293 cells co-transfected with CPNE7-OE and PKM2-OE lentivirus; lysate precleared with A/G PLUS agarose at 4°C for 2 hours; primary antibody 1 hour at 4°C, agarose overnight at 4°C; Western blot; both directions
[2] = biological target: Pyruvate kinase muscle protein (PKM2), exogenous, in HEK293 cells (UniProt P14618); assay: as above

binding [1]	binding [2]	Substance
binds	–	Pyruvate kinase muscle protein (PKM2), exogenous, in HEK293 cells (from UniProt P14618 1-531)
–	binds	Copine 7 (CPNE7), exogenous, in HEK293 cells (from UniProt Q9UBL6 1-633)
